PMC11757143, “Generation and characterization of OX40-ligand fusion protein that agonizes OX40 on T-Lymphocytes” (Frontiers in Immunology, 2025)
Results are given in words; binding and its absence hold for the method and conditions named. Some results given as binding are weak or reduced against the parent protein; the word gives no strength. For part of these data: Sequences can lack the tags named with a protein.

Chains of the proteins cited; added tags and fusions are not shown. Lines headed by an entry give the natural chain unless they say otherwise; changes in a name come on top.
UniProt P39039: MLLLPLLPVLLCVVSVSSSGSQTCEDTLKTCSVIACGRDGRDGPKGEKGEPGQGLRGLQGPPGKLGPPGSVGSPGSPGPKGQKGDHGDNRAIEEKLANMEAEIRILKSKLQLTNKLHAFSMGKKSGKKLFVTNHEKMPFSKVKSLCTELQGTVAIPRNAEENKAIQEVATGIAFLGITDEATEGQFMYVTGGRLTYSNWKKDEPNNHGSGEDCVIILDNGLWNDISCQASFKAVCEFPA

Legend:
[1] = molecular target: T1, cell surface OX40 expressed by the T cell hybridoma (UniProt P47741); experiment: flow cytometry on cells; OX40+ T cell hybridoma incubated with the OX40L proteins (3 or 0.3 µg/mL), then anti-PA tag antibody and anti-rat IgG2a-FITC; only the binder purified
T1 sequence: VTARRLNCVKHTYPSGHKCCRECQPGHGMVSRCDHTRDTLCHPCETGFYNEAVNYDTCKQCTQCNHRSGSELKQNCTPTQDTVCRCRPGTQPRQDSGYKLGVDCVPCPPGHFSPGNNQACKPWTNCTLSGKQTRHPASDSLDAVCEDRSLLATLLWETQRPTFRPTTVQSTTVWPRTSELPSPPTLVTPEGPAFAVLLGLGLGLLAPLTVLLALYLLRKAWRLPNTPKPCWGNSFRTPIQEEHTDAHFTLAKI

mouse Ox40-Fc (mouse) = molecular target: T2, mouse Ox40-Fc (mouse) (UniProt P47741); experiment: ELISA; plates pre-coated with 0.4 µg/mL OX40-Fc; purified OX40L proteins serially diluted and added; detected with anti-PA tag rat IgG (NZ-1) and anti-rat IgG-HRP; both purified
T2 sequence: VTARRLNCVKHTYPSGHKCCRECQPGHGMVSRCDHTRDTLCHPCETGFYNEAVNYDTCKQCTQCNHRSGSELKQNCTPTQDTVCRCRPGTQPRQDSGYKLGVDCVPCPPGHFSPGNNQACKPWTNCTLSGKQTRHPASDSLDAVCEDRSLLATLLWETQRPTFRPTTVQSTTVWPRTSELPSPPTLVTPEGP

Substance | binding [1] | binding (mouse Ox40-Fc (mouse))
Fc-MBL-OX40L (from UniProt P39039 18-126; P43488 51-198) (Fc fusion) | binds | binds
MBL-OX40L (from UniProt P39039 18-126; P43488 51-198) (ligand) | binds | binds
MBL-scOX40L (from UniProt P39039 18-126; P43488 51-198; P43488 51-198; P43488 51-198) (ligand) | binds | binds
